Results deposited as PubChem BioAssay AID504804 (Drosophila RNAi Screening Center, 2011).
The screen tested about 19,000 reagents; below is a random part of those with a known target gene and a result. Over the whole deposit, 47 (0.25%) were called active. 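Signals are raw, not normalised; exact z-scores behind calls not deposited; actives needed confirmation, so some wells reaching 2 SD are inactive.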 Entries without a mark were called inactive. The numbers tell different reagents against one gene apart. Names joined by + are all predicted targets of the reagent.

Screen: 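Fly genes whose loss lessens doxorubicin-driven cell death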 (primary screen)
Cell system: Drosophila Kc cells
Reagent: long dsRNA against Drosophila genes, 0.5 µg dsRNA per well
Timing: 96 h (48 h knock-down, then 48 h drug)
Challenge: doxorubicin 5 µg/ml for 48 h, added 48 h after dsRNA
Measurement: 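Viability measured as cellular ATP by luminescence after 48 h knock-down then 48 h doxorubicin at 5 µg/ml; unnormalised plate counts for each replicate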
Direction: raw ATP luminescence: higher = more viable cells, protection from doxorubicin
Hit rule: 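Active when both duplicate wells lie at least 2 SD above the plate mean and protection is confirmed by rescreening and independent dsRNAs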

Target gene	reagent	SD above plate mean	raw ATP luminescence, replicate 1	raw ATP luminescence, replicate 2
CG30291	1		61190	64740
Dic3	1		52210	67800
Pp2A-29B	1		37390	73950
dpr2	1		44060	74717
dpr2	2		48620	75177
eIF4E1	1		31047	30150
ATbp	1		2.47e5	2.00e5
unpg	1		47090	77050
CG31882	1		2.75e5	3.29e5
CG7083	1		75397	72530
CG2698	1		50510	63253
Upf2	1		23980	32520
Dmtn	1		35813	15697
Eph	1		52100	59000
Sap47	1		54007	63890
CG33332	1		75210	62410
CG9953	1		66023	83790
CG14191	1		4.00e5	2.70e5
CG31224	1		1.39e5	1.67e5
CG31224	2		55020	50953
sbr	1		2.32e5	2.97e5
sbr	2		1.94e5	1.94e5
CG14823	1		46090	43930
CG17343	1		71607	58993
Ir7e	1		1.87e5	2.35e5
TfIIA-S	1		79030	58480
CG12680	1		45220	57350
CG44153	1		1.27e5	76680
CG44153	2		33230	32617
CG44153	3		28263	21837
CG44153	4		17413	24630
CG1773	1		69807	57270
Desat1	1		51917	60503
asf1	1		22337	23773
Galphai	1		46287	43443

Already shown: an excerpt of the list.
Target gene	reagent	SD above plate mean	raw ATP luminescence, replicate 1	raw ATP luminescence, replicate 2
eIF4E1	1		31047	30150
ATbp	1		2.47e5	2.00e5
unpg	1		47090	77050

Continued.
Target gene	reagent	SD above plate mean	raw ATP luminescence, replicate 1	raw ATP luminescence, replicate 2
CG17991	1		61560	56450
JMJD4	1		96580	93827
CG32681	1		2.19e5	2.22e5
CG15293	1		75850	77280
Ilp3	1		69703	71320
alpha-Est3	1		31650	27407
CG10348	1		39107	46237
Fpps	1		57963	47993
CG31523	1		50240	57090
CG31523	2		29187	29053
Rme-8	1		89527	77973
yata	1		52430	38680
E(spl)m8-HLH	1		53600	51330
RpS28a	1		44750	44080
Or83a	1		61470	67173
CG3085	1		59923	63030
eIF3i	1		74930	50577
Gr43a	1		58413	77143
Abca3	1		3.34e5	2.98e5
tal-1A + tal-2A + tal-AA + 1 more	1		2.06e5	1.92e5
CG11267	1		1.01e5	80320
betaNACtes3	1		4.03e5	3.43e5
CG32832	1		2.76e5	2.46e5
Hat1	1		67570	73807
Arglu1	1		31340	36237
CG17742 (retired record)	1		31433	45543
Dpp10	1		2.73e5	2.67e5
Dpp10	2		31187	40503
CG6294 + CG6299 + CG15642	1		3.14e5	3.28e5
CG34452	1		77217	89450
CG9497	1		1.01e5	65543
CG11251	1	at least 3 SD above plate mean (active)	1.33e5	1.42e5
Pdss2	1		20993	18953
Rab4 + CG42239	1		1.25e5	84380
Traf4	1		18310	18180
Traf4	2		98243	77800
Loxl2	1		71363	72923
CG14712	1		49657	23333
CG13476	1		39417	30560
CG2157	1		3.84e5	3.70e5
CG18135	1		25663	34590
tsg	1		3.54e5	3.04e5
SdhD	1		51510	48860
betaTry	1		2.36e5	1.69e5
Alr	1		2.01e5	2.60e5
trol	1		1.64e5	1.74e5
trol	2		3.44e5	3.01e5
trol	3		42000	41800
trol	4		35790	50340
